Assay results published in publication PMC3120833.
These are yes or no findings as the source states them, for the method shown. Binding seen in cells or lysates may run through a third protein. Some entries that bind do so weakly or less than the wild type.

Chains of the proteins cited; added tags and fusions are not shown.
UniProt Q93009: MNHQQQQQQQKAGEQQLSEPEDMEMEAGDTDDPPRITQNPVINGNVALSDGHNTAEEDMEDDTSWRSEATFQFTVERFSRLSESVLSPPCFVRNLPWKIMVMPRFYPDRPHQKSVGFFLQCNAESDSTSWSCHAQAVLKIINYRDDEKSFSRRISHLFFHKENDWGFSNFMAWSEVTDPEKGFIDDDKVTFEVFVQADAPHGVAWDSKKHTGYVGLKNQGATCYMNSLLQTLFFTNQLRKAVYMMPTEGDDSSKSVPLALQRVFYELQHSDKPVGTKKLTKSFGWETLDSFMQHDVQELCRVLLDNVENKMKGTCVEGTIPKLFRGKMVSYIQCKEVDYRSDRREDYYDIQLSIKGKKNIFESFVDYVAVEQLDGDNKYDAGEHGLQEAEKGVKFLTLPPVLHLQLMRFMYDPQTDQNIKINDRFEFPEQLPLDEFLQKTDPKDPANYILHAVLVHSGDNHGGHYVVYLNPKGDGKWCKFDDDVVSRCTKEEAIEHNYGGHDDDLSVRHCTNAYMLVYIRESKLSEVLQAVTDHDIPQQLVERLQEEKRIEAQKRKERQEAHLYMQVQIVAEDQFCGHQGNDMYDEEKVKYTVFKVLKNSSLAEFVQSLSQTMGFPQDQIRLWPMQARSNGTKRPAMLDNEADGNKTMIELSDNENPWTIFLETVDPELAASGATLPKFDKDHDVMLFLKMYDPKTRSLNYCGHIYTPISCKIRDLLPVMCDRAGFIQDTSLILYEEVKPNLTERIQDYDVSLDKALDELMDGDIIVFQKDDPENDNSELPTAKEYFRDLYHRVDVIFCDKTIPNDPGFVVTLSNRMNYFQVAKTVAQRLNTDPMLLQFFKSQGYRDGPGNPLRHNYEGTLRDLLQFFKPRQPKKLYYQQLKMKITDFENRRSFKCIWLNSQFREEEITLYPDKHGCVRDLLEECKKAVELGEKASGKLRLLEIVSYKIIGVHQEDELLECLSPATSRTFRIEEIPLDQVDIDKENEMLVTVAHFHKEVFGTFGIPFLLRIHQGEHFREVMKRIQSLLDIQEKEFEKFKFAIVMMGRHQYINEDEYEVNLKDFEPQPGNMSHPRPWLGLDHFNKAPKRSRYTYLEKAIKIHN

Biological target: herpesvirus-associated ubiquitin-specific protease (HAUSP), endogenous in HEK293 cells (human (endogenous in HEK293)) (UniProt Q93009)
Experiment: co-IP; HEK293 cells harvested and immunoprecipitated with anti-ING1 or anti-HAUSP, controls mouse anti-GST and rabbit pre-immune serum; blotted for HAUSP (USP7) or ING1

B1: ING1, endogenous in HEK293 cells (protein, UniProt Q9UK53-2 1-279)
chain: MLSPANGEQLHLVNYVEDYLDSIESLPFDLQRNVSLMREIDAKYQEILKELDECYERFSRETDGAQKRRMLHCVQRALIRSQELGDEKIQIVSQMVELVENRTRQVDSHVELFEAQQELGDTAGNSGKAGADRPKGEAAAQADKPNSKRSRRQRNNENRENASSNHDHDDGASGTPKEKKAKTSKKKKRSKAKAEREASPADLPIDPNEPTYCLCNQVSYGEMIGCDNDECPIEWFHFSCVGLNHKPKGKWYCPKCRGENEKTMDKALEKSKKERAYNR
binding: binds
